The values that follow come from US7371829B2, “Haptens, immunogens, antibodies and conjugates to ketamine and its metabolites” (Randox Laboratories Limited, priority 2002, dated 2008).

In the series the test system is antiserum raised to immunogen C (hapten C-BSA), IgG fraction. Nature of the series: Competitive ELISA microtiter plate assay for ketamine and norketamine (conjugate A, hapten A-HRP, as detection reagent). The class given is binding, sheep. As for the experimental part:
An aqueous solution of the immunogen prepared in Example 10 was formulated with Freund's Complete Adjuvant (FCA) to form an emulsion consisting of 4 mg/ml immunogen in 50% (v/v) FCA. Three sheep were immunised with this emulsion (1° immunisation), 0.25 ml being subcutaneously injected at each of four sites in the flank of each animal. The next immunisation (boost 1) contained 2 mg/ml immunogen and subsequent immunizations (boosts 2 to 11) contained 1 mg/ml immunogen. All boosts were emulsified in 50% (v/v) Freund's Incomplete Adjuvant (FIA) and were administered in the same manner as the 1° immunisation, at monthly intervals for 1 year. Blood sampling took place 7 to 14 days after each boost. Each sample was processed to produce antiserum, which was further purified by caprylic acid and ammonium sulfate precipitation to yield an immunoglobulin G (IgG) fraction. The IgG fraction was evaluated by competitive ELISA microtiter plate assay, as described in Example 16 below.
The wells of an enhanced binding 96 well polystyrene microtiter plate were coated with the IgG fraction of the antiserum raised to immunogen C (hapten C-BSA) (Example 10), diluted in 10 mM Tris, pH 8.5 (125 μl/well). The appropriate antibody coating dilution was determined using standard ELISA checkerboard techniques. The plate was incubated for 2 hours at 37° C., washed 4 times with Tris buffered saline containing Tween 20 (TBST) and tapped dry. Standard solutions of ketamine and norketamine were prepared in TBST at 0, 0.1, 0.5, 1, 5, 25, 100 and 500 ng/ml and 50 μl of each was added to the appropriate wells (FIG. 4). 75 μl of conjugate A (hapten A-HRP) (Example 11), diluted in Tris buffer (pH 7.2) containing EDTA, D-mannitol, sucrose, thimerosal and BSA, was added to each of the wells, as shown in FIG. 4. The appropriate dilution of conjugate was also determined using standard ELISA checkerboard techniques. The plate was incubated at 37° C. for 2 hours. Excess unbound conjugate was removed by washing 6 times over a 10 minute period with TBST.
125 μl of tetramethylbenzidine (TMB) substrate solution was added to each well of the plate that was then incubated for 15 to 20 minutes in the dark at room temperature. The reaction was terminated by addition of 125 μl 0.2M H2SO4 to each well. The absorbance was then measured at 450 nm using a microtiter plate reader.
In order to determine the specificity of the competitive ELISA for ketamine and norketamine, standard solutions were prepared in TBST at 0, 0.1, 0.5, 1, 5, 25, 100 and 500 ng/ml. Employing each series of standards in the ketamine competitive ELISA, calibration curves were generated and these were used to determine the cross-reactivity of the immunoassay with these substances. The results of this study are presented in Table 2, cross-reactivity of potential cross-reactants phencyclidine and dextromethorphan being calculated according to the following formula: % CR=IC50, Ketamine/IC50, CR×100
Where %CR is the percentage cross-reactivity, IC50, Ketamine is the concentration of ketamine that causes 50% displacement of signal and IC50, CR is the concentration of potential cross-reactant that causes 50% displacement of signal.
In general terms: An ELISA detects its analyte on a solid surface through an enzyme-linked reagent.

Where [1] appears, read: standard concentration 0.1 ng/ml.
The mark [2] stands for this setting: standard concentration 0.5 ng/ml.
[3] abbreviates: standard concentration 25 ng/ml.
Setting [4] is: standard concentration 100 ng/ml.
The mark [5] stands for this setting: standard concentration 500 ng/ml.

As for `CNC1(c2ccccc2Cl)CCCCC1=O` (racemic) [Ketamine, (±)-2-(o-chlorophenyl)-2-(methylamino) cyclohexanone], the “A450 (absorbance at 450 nm)” value runs as follows: under setting [1], 2.02; under setting [2], 1.817; (standard concentration 1 ng/ml) 1.489; (standard concentration 5 ng/ml) 0.935; under setting [3], 0.548; under setting [4], 0.404. Moreover, under setting [5], the “A450 (absorbance at 450 nm)” value is listed as 0.254.
As for `NC1(c2ccccc2Cl)CCCCC1=O` (centres unmarked) [Norketamine, [2-amino-2-(o-chlorophenyl)]cyclohexanone], the “A450 (absorbance at 450 nm)” value by setting is: under setting [1], 1.843; under setting [2], 1.416; (standard concentration 1 ng/ml) 1.368; (standard concentration 5 ng/ml) 0.961; under setting [3], 0.482; under setting [4], 0.320. Under setting [5], the “A450 (absorbance at 450 nm)” value worked out at 0.222.
